PubChem BioAssay AID1508587, Peter MacCallum Cancer Centre | 2020

Aim: 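Retest of knockdowns boosting BRAF inhibitor action on lactate release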 (follow-up of hits)
System: human WM266.4 melanoma cells with a BRAF V600 mutation
Knock-down reagent: single siRNA against human genes, 25 nM
Time to read-out: 96 h
Challenge: vemurafenib 300 nM (about IC25), given 48 h after transfection for 48 h
Measurement: 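Per-cell lactate from absorbance divided by DAPI nucleus counts, compared with and without vemurafenib, relative to non-targeting siRNA, mean of 2 replicates; nuclear counts also give cell number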
Reading the numbers: lactate per cell, drug vs no drug: higher = less drug-induced drop in lactate per cell
Active means: 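Enhancer call for any duplex whose drug versus no-drug per-cell lactate ratio is below 0.55 (2 SD beneath non-targeting average); genes confirmed when at least 2 of their 4 duplexes qualify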
Shown is a random part of about 1,600 reagents. 623 of all reagents (39%) were called active. 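Calls are for each duplex; lactate ratios contain extreme outliers.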 The numbers tell different reagents against one gene apart. Not all columns of the deposit are shown.

lactate per cell, drug vs no drug, by gene and reagent
RTTN (rotatin): #1 0.57 inactive; #2 0.74 inactive; #3 0.65 inactive; #4 1.18 inactive
VPS45 (vacuolar protein sorting 45 homolog): #1 0.43 active; #2 0.55 inactive; #3 0.36 active; #4 0.76 inactive
SLAMF8 (SLAM family member 8): #1 0.5 active; #2 0.57 inactive; #3 0.68 inactive; #4 0.46 active
CT47A8 (cancer/testis antigen family 47 member A8): #1 0.52 active; #2 0.64 inactive; #3 0.66 inactive; #4 0.32 active
VPS33B (VPS33B late endosome and lysosome associated): #1 0.6 inactive; #2 0.64 inactive; #3 0.41 active; #4 0.74 inactive
BTBD1 (BTB domain containing 1): #1 0.55 inactive; #2 0.5 active; #3 0.64 inactive; #4 0.66 inactive
TCN2 (transcobalamin 2): #1 0.51 active; #2 0.53 active; #3 0.25 active; #4 0.51 active
MAPK6 (mitogen-activated protein kinase 6): #1 0.64 inactive; #2 0.42 active; #3 0.46 active; #4 0.6 inactive
BEST1 (bestrophin 1): #1 0.67 inactive; #2 0.64 inactive; #3 0.57 inactive; #4 0.52 active

Records above whose target name begins with R or r (4):
lactate per cell, drug vs no drug, by gene and reagent
RTTN (rotatin): #1 0.57 inactive; #2 0.74 inactive; #3 0.65 inactive; #4 1.18 inactive
